# Assay results from paper PMC8973876.
# Chains of the proteins cited; added tags and fusions are not shown. Lines headed by an entry give the natural chain unless they say otherwise; changes in a name come on top. Residues count along the entry.
# UniProt Q80WC1: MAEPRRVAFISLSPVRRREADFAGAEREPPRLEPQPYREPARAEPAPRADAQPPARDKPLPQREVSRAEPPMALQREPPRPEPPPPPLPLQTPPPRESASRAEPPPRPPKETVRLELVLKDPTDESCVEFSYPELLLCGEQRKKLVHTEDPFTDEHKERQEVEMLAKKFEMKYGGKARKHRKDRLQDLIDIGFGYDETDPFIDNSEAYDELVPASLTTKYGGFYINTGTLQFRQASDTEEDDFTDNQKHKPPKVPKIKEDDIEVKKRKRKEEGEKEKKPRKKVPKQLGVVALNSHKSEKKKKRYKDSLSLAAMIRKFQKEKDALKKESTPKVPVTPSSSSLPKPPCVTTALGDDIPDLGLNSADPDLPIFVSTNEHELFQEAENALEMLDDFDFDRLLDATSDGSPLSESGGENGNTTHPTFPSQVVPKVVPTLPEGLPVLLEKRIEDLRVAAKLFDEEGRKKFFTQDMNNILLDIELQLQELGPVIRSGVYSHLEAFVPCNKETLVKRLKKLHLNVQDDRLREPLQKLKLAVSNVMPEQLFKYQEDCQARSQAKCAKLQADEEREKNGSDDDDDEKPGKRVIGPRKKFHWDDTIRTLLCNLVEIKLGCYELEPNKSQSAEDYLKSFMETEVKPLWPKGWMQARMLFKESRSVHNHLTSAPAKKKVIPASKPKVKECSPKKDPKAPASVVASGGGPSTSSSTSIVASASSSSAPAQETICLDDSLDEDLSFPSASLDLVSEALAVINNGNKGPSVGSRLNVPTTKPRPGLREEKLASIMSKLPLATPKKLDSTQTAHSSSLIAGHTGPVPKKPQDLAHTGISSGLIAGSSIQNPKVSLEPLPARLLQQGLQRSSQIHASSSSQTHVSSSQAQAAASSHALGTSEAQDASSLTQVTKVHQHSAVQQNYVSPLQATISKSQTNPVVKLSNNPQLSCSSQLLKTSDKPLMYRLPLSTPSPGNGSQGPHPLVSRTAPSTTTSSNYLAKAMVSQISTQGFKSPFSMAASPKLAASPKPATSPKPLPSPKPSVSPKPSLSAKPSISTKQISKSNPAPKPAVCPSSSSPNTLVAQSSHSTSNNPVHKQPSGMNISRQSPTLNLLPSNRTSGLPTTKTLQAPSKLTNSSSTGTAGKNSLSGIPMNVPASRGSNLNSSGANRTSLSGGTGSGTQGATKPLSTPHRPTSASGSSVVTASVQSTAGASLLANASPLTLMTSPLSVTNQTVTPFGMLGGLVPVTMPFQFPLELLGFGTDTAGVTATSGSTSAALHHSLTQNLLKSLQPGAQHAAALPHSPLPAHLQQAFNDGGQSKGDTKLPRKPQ
# UniProt Q61666, residues 373-1015: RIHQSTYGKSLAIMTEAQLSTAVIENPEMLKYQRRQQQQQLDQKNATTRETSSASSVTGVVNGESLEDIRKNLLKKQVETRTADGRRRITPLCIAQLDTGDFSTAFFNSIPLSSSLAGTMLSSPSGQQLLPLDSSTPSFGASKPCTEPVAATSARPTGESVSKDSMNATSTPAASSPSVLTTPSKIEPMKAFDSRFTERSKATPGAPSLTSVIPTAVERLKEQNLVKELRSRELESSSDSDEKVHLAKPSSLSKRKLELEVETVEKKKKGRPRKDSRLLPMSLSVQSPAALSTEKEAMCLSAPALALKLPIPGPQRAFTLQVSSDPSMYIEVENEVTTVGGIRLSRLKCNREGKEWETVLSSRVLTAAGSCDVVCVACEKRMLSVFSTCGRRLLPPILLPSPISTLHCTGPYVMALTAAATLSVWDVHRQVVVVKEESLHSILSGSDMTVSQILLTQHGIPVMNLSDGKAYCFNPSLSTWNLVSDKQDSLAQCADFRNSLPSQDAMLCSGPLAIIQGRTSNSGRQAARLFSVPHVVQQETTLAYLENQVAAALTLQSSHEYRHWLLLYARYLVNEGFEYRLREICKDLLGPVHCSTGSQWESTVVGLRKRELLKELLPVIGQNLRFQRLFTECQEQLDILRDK
# These are yes or no findings as the source states them, for the method shown. In cells and extracts the contact can be indirect.
# Target: Ubn2 (full-length mouse Ubn2) (mouse) (UniProt Q80WC1)
# Experiment: co-IP; Flag-tag and HA-tag plasmids expressing Ubn2 or Hira transfected into HEK-293T cells; whole cell lysate incubated with Flag-tag magnetic beads; eluate analysed by western blot
substance,measurement,value
Hira ΔWD40 (truncation of mouse Hira containing amino acids 373-1016) (from UniProt Q61666 373-1015) (domain or fragment),binding,no binding
